Experimental data taken from article PMC10268400.
These are yes or no findings as the source states them, for the method shown. In cells and extracts the contact can be indirect. Some entries that bind do so weakly or less than the wild type.

Protein sequences, listed by entry. Tags and fused reporters are not part of them.
UniProt P48681: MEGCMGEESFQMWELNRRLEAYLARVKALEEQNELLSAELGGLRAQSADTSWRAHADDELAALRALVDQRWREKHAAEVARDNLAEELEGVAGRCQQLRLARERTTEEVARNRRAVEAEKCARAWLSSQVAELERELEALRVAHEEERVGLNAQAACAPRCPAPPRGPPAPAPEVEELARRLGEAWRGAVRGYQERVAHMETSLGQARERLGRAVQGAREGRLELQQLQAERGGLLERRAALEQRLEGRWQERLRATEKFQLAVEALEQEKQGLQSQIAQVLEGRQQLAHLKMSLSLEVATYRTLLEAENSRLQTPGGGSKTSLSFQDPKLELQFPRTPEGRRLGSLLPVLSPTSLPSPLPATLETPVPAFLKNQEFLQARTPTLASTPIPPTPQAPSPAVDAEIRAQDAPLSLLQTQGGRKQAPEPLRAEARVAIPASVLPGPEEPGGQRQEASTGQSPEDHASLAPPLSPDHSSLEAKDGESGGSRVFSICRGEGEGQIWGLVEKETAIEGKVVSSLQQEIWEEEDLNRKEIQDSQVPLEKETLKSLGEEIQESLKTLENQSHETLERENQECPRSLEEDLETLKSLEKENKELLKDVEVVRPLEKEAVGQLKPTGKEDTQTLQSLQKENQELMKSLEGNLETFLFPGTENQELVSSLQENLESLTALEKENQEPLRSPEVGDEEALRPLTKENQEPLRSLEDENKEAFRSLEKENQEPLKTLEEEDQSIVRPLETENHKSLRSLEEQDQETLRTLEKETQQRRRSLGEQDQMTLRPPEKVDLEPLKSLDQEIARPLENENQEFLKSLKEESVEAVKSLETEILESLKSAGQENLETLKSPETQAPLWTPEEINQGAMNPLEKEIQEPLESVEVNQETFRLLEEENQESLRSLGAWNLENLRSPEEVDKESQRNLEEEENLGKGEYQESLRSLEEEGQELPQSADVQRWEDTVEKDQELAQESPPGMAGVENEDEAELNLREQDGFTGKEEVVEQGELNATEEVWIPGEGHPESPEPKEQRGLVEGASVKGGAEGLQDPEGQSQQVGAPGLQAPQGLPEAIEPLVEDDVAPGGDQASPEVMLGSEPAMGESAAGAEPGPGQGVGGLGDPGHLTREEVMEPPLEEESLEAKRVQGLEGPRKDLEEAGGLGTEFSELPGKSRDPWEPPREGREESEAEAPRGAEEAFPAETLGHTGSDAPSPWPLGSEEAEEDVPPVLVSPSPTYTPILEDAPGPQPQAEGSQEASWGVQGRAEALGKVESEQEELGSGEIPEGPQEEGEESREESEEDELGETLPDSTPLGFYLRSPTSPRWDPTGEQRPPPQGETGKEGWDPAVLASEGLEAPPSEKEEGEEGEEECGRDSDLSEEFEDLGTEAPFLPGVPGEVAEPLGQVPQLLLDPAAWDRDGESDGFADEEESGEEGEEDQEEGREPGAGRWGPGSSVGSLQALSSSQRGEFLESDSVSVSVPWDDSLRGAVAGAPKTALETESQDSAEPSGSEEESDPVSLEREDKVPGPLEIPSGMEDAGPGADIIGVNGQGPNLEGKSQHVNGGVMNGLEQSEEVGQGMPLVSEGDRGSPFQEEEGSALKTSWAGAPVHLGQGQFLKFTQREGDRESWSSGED
UniProt P53350: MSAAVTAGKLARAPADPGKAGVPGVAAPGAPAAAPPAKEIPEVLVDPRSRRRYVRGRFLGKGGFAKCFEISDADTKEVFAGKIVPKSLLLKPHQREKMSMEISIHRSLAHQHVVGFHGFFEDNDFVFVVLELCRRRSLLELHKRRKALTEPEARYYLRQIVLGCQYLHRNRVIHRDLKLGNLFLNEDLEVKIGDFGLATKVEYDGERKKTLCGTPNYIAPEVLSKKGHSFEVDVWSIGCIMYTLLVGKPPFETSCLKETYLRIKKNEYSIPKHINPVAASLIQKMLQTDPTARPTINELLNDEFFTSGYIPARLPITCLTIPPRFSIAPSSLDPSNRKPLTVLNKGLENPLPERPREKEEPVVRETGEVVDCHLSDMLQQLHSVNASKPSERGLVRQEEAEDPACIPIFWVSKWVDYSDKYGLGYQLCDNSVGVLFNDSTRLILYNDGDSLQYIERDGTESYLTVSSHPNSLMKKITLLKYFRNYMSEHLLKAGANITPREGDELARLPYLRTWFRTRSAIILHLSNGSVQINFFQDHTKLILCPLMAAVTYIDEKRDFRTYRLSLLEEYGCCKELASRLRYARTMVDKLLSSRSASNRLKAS

Target: nestin (type VI intermediate filament protein) (human (endogenous in HASM cells)) (UniProt P48681)
Assay: co-IP; extracts of HASM cells untreated or treated with 10^-4 M ACh for different time points; immunoprecipitated with nestin antibody overnight, Protein A/G Plus-Agarose 3 h; washed four times in 50 mM Tris-HCl pH 7.6, 150 mM NaCl, 0.1% Triton X-100; immunoblotted for nestin and Plk1; IgG as control

Substance: Polo-like kinase 1 (Plk1) (from UniProt P53350 1-603) (enzyme)
- binding: binds
